# Experimental data from PubChem BioAssay AID2685 (National Center for Advancing Translational Sciences (NCATS), 2010).
# The list shows a part of the results. These are further read-outs of the screen, such as a control signal, another cell line or another target. No call is given for them. Compounds called inactive in the main read-out are mostly missing here. Words in brackets tell the shape of the fitted curve; partial curves, single points and poor fits give uncertain potencies.
# Assay: qHTS Assay for Lipid Storage Modulators in Drosophila S3 Cells;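 as to cell number change: cells counted by Cell Tracker Red CMTPX staining in the red channel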
# Details: BODIPY lipid droplet fluorescence, 18-24 h; for cell number change: measured here: cell count max response, cells fed with added oleic acid
# Procedure, shortened: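 Drosophila S3 cells got compounds at several concentrations plus oleic acid (400 uM solution). Laser-scanning cytometry with 488 nm excitation read lipid droplets at 500-530 nm and cells at 575-640 nm. Percent activity was relative to 20 uM Triacsin C.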
# [1] = measured here: cell number channel AC50, cells fed with added oleic acid
# [2] = measured here: lipid fluorescence (Fed channel) AC50, cells fed with added oleic acid
structure (smiles),measurement,setting,value
COc1ccc(NC2CC(=O)NC2=O)cc1 (stereo unspecified),cell number change,,4.02%
same,AC50,[1],"0.651 µM [rising, full curve, poor fit]"
COc1ccc(S(=O)(=O)N2CCC(C(N)=O)(N3CCCCC3)CC2)cc1OC,cell number change,,7.14%
same,AC50,[2],"29.1 µM [rising, partial curve, poor fit]"
O=C(NCCCN1CCCC1)c1ccc(CS(=O)(=O)c2ccc(Cl)cc2)o1,cell number change,,3.99%
same,AC50,[2],"0.103 µM [rising, partial curve, poor fit]"
O=C(NCCc1ccc(Cl)cc1)c1ccc(NC2=NC3CS(=O)(=O)CC3S2)cc1 (stereo unspecified),cell number change,,32.9%
same,AC50,[1],"23.1 µM [rising, single point]"
O=C(N/N=C\c1c(O)ccc2ccccc12)c1ccc(O)cc1,cell number change,,-4.66%
same,AC50,[2],"14.6 µM [falling, single point]"
O=C1CCC(C(=O)N2CCCC2)CN1Cc1cccc(C(F)(F)F)c1 (stereo unspecified),cell number change,,11.4%
same,AC50,[2],"29.1 µM [falling, single point]"
Cc1ccc(S(=O)(=O)NCCC(=O)OCC(=O)Nc2cccc(Cl)c2)cc1,cell number change,,-0.842%
same,AC50,[2],"25.9 µM [rising, partial curve]"
CC1CN(C(=O)c2ccc(CNS(=O)(=O)c3cccc(Cl)c3)cc2)CC(C)O1 (stereo unspecified),cell number change,,-23.5%
same,AC50,[2],"18.4 µM [falling, single point]"
COCCN1CC(C(=O)NCc2ncccc2C)CCC1=O (stereo unspecified),cell number change,,2.93%
same,AC50,[2],"0.00461 µM [falling, full curve, poor fit]"
CCN(CC)c1ccc(S(=O)(=O)N2CCOCC2)cc1NC(=O)Cn1nc(C)c([N+](=O)[O-])c1C,cell number change,,31.2%
same,AC50,[1],"29.1 µM [rising, single point]"
same,AC50,[2],"23.1 µM [rising, partial curve]"
COc1ccc(CNC(=O)c2ccc(CS(=O)Cc3ccc(Cl)cc3)o2)cc1 (stereo unspecified),cell number change,,-11.8%
CCOC(=O)N1CCN(C(=O)c2ccc3nc(SCc4ccc(F)cc4)n(C)c3c2)CC1,cell number change,,0.575%
O=C(NCCc1c[nH]c2ccccc12)c1ccco1,cell number change,,-3.88%
Cc1ccccc1NC(=S)N(Cc1ccccc1)Cc1cccs1,cell number change,,-12.3%
same,AC50,[1],"6.51 µM [rising, single point]"
Cc1ccc2cc(CN(CCc3ccccc3)C(=S)NCCCN(C)C)c(=O)[nH]c2c1,cell number change,,-10.9%
same,AC50,[2],"32.6 µM [falling, single point]"
Cc1ccccc1Nc1nc(N)nc(COC(=O)c2ccc([N+](=O)[O-])o2)n1,cell number change,,-4.06%
same,AC50,[2],"1.84 µM [rising, partial curve, poor fit]"
Cc1cc(C)nc(-n2cc(C(=O)c3cc(F)ccc3O)cn2)n1,cell number change,,-33.4%
same,AC50,[2],"11.6 µM [rising, partial curve, poor fit]"
Cn1c(N)c(C(=O)COC(=O)/C=C/c2cccc(F)c2)c(=O)n(C)c1=O,cell number change,,6.05%
same,AC50,[2],"3.26 µM [falling, partial curve]"
CN(C)C(CNc1ccc(C(F)(F)F)cc1[N+](=O)[O-])c1ccccc1 (stereo unspecified),cell number change,,23.1%
same,AC50,[2],"18.4 µM [rising, single point]"
CCc1nc(-c2ccc(OC)c(OC)c2)cc2cc(OC)c(OC)cc12,cell number change,,1.47%
same,AC50,[2],"0.58 µM [rising, single point]"
Cn1c(=O)c2c(nc(NC(Cc3ccccc3)C(=O)O)n2Cc2ccccc2)n(C)c1=O (stereo unspecified),cell number change,,7.63%
CC1=C(C(=O)Nc2cccc(C(=O)N3CCN(c4cccc(C(F)(F)F)c4)CC3)c2)SCCO1,AC50,[1],"6.51 µM [falling, single point]"
COC(=O)c1c(NC(=O)c2ccco2)sc2c1CCN(C(C)=O)C2,AC50,[2],"2.59 µM [falling, partial curve]"
O=C(Cc1ccc(F)cc1)Nc1cccc(-c2cn3c(n2)SCC3)c1,cell number change,,6.15%
same,AC50,[1],"2.91 µM [falling, single point]"
CCCCN(C)C(=O)c1nc2ccccn2c1CNC1CCC1,cell number change,,42.3%
same,AC50,[1],"5.17 µM [rising, full curve]"
CCN(c1ccccc1)S(=O)(=O)c1ccc(Oc2ccc([N+](=O)[O-])cc2)nc1,AC50,[1],"2.31 µM [rising, partial curve, poor fit]"
same,AC50,[2],"2.31 µM [rising, partial curve, poor fit]"
O=C(COC(=O)c1cc(S(=O)(=O)NCc2ccccc2)ccc1O)NCc1ccccc1,cell number change,,-33.7%
same,AC50,[1],"29.1 µM [falling, single point]"
same,AC50,[2],"29.1 µM [falling, single point]"
O=C(Nc1nccs1)C1CC(=O)N(CCc2ccc(F)cc2)C1 (stereo unspecified),cell number change,,18.8%
CCN1c2ccccc2S(=O)(=O)c2ccccc21,AC50,[2],"29.1 µM [falling, single point]"
Cc1cccc(-c2nnc(SCC(=O)Nc3cc(C)on3)n2C)c1,cell number change,,51.3%
C=CCn1c(SCn2nnc3ccccc3c2=O)nnc1-c1ccc(Br)cc1,cell number change,,3.51%
same,AC50,[2],"0.517 µM [rising, full curve]"
COC(=O)c1c(NC(=O)c2c(Cl)cnn2C)sc(C)c1C,cell number change,,-12.8%
same,AC50,[1],"0.731 µM [falling, single point]"
same,AC50,[2],"0.651 µM [falling, single point]"
COc1cc([N+](=O)[O-])ccc1NC(=S)NNC(=O)c1ccc2c(c1)OCO2,cell number change,,19.2%
same,AC50,[2],"2.91 µM [rising, single point]"
O=c1c(O)c(-c2ccc3c(c2)OCO3)oc2ccccc12,cell number change,,-3.61%
same,AC50,[2],"5.17 µM [falling, single point]"
CCCCn1c(=N)n(CC(=O)C(C)(C)C)c2ccccc21,cell number change,,-22.1%
same,AC50,[2],"0.00517 µM [rising, full curve, poor fit]"
CCOC(=O)C1CC(c2ccccc2)=NNC1=O (stereo unspecified),cell number change,,8.82%
COc1ccc(C(=O)COC(=O)c2ccc(Cl)nc2)cc1OC,cell number change,,-28.1%
CNc1nc2c(c(=O)[nH]c(=O)n2C)n1CCOC,cell number change,,4.02%
same,AC50,[2],"3.66 µM [falling, single point]"
CCOc1ccc(C(C)=O)cc1COC(=O)CNC(=O)c1cccs1,cell number change,,23.4%
same,AC50,[2],"14.6 µM [rising, single point]"
CCOc1ccc(NC(=O)N(CCCN2CCOCC2)Cc2cccnc2)cc1,cell number change,,5.83%
same,AC50,[2],"0.00411 µM [rising, full curve, poor fit]"
COc1ccc(C(CNC(=O)c2ccc(S(=O)(=O)N(C)C)cc2)N2CCCCC2)cc1 (stereo unspecified),cell number change,,-48.1%
same,AC50,[1],"0.103 µM [falling, full curve, poor fit]"
same,AC50,[2],"18.4 µM [falling, partial curve]"
O=c1c2ccccc2nc(SCc2cc([N+](=O)[O-])cc3c2OCOC3)n1-c1ccccc1,AC50,[2],"0.164 µM [falling, full curve, poor fit]"
CCN1CCN(c2nc(Nc3ccc(NC(C)=O)cc3)nc(Nc3ccc(NC(C)=O)cc3)n2)CC1,cell number change,,1.12%
same,AC50,[2],"0.0058 µM [falling, full curve, poor fit]"
COc1cccc(N2CC(C(=O)Nc3nnc(SCC(=O)Nc4ccc(NC(C)=O)cc4)s3)CC2=O)c1 (stereo unspecified),cell number change,,-9.35%
same,AC50,[2],"29.1 µM [rising, single point]"
CCn1c(=O)cc(OCC(=O)Nc2ccc3c(c2)OCCO3)c2ccccc21,AC50,[1],"0.259 µM [rising, partial curve, poor fit]"
CC(C)CC(=O)Nc1nnc(SCC(=O)NCc2ccco2)s1,cell number change,,9.79%
O=C(Nc1nc(-c2ccccn2)cs1)c1ccc(F)c(S(=O)(=O)N2CCOCC2)c1,cell number change,,2.9%
same,AC50,[1],"0.517 µM [rising, single point]"
same,AC50,[2],"14.6 µM [falling, partial curve]"
O=C1OC(N2C(=O)CC[C@H]2C(=O)NCC2CCCO2)c2ccccc21 (stereo partly specified),cell number change,,21.7%
same,AC50,[1],"0.082 µM [rising, full curve, poor fit]"
same,AC50,[2],"29.1 µM [rising, single point]"
CN1C(=O)CC(N2CCN(Cc3ccc(Cl)cc3)CC2)C1=O (stereo unspecified),cell number change,,49.6%
same,AC50,[1],"14.6 µM [rising, partial curve, poor fit]"
same,AC50,[2],"0.366 µM [rising, partial curve, poor fit]"
CC(=O)NCc1nnc2c3ccccc3c(-c3ccccc3)nn12,cell number change,,4.33%
same,AC50,[2],"1.12 µM [rising, partial curve]"
CCOc1ccc(NC(=O)CN2CCN(CC(=O)c3ccc(OC)c(OC)c3)CC2)cc1,cell number change,,20.7%
O=C(CCCC(=O)N1CCN(c2cccc(Cl)c2)CC1)c1ccccc1,cell number change,,23.6%
same,AC50,[2],"29.1 µM [falling, single point]"
CCCCOc1ccc(Cn2c(=O)oc3ccccc32)cc1,AC50,[2],"6.51 µM [rising, single point]"
CCc1noc(C)c1C(=O)N(C)CC(=O)Nc1cccc(OC)c1,cell number change,,-11.1%
same,AC50,[2],"4.61 µM [rising, partial curve, poor fit]"
COc1ccc(CCC(=O)Nc2nc(-c3ccncc3)cs2)cc1,AC50,[1],"6.51 µM [rising, single point]"
CCCn1nc(C(=O)Nc2cc(C(=O)OC)ccc2C)c2ccccc2c1=O,cell number change,,6.86%
Cc1cc(=O)oc(C)c1C(=O)O,cell number change,,-25.8%
COc1ccc(-n2c(O)c(C=NC3CC3)c(=O)[nH]c2=O)cc1,cell number change,,2.14%
same,AC50,[2],"6.51 µM [rising, single point]"
COc1ccc(CCC(=O)Nc2ncc(C)s2)cc1OC,cell number change,,-11.1%
same,AC50,[2],"0.58 µM [falling, single point]"
COc1ccc(CCNC(=O)Cn2c(=O)n(-c3ccc(C)c(F)c3)c(=O)c3sccc32)cc1OC,AC50,[1],"6.51 µM [rising, single point]"
CC(C)(C)OC(=O)N1CCC(CNC(=O)c2cccs2)CC1,cell number change,,-56%
same,AC50,[2],"5.8 µM [falling, partial curve]"
Cc1cc(C)c2oc(=O)cc(CN3CCN(Cc4ccccc4)CC3)c2c1,cell number change,,47.2%
same,AC50,[1],"29.1 µM [rising, single point]"

# Seven entries picked at random from the list so far:
structure (smiles),measurement,setting,value
CN(C)C(CNc1ccc(C(F)(F)F)cc1[N+](=O)[O-])c1ccccc1 (stereo unspecified),cell number change,,23.1%
CCN(c1ccccc1)S(=O)(=O)c1ccc(Oc2ccc([N+](=O)[O-])cc2)nc1,AC50,[1],"2.31 µM [rising, partial curve, poor fit]"
CCN(CC)c1ccc(S(=O)(=O)N2CCOCC2)cc1NC(=O)Cn1nc(C)c([N+](=O)[O-])c1C,cell number change,,31.2%
O=c1c(O)c(-c2ccc3c(c2)OCO3)oc2ccccc12,AC50,[2],"5.17 µM [falling, single point]"
O=C(Nc1nc(-c2ccccn2)cs1)c1ccc(F)c(S(=O)(=O)N2CCOCC2)c1,cell number change,,2.9%
O=C1CCC(C(=O)N2CCCC2)CN1Cc1cccc(C(F)(F)F)c1 (stereo unspecified),AC50,[2],"29.1 µM [falling, single point]"
CCCCN(C)C(=O)c1nc2ccccn2c1CNC1CCC1,AC50,[1],"5.17 µM [rising, full curve]"
